Measured values as given in PubChem BioAssay AID504467 (National Center for Advancing Translational Sciences (NCATS), 2011).
Out of some 330,000 compounds screened, about 7,700 (2.3%) were called active. Inconclusive means that the source gave no clear call. Such entries were picked first, then a sample of the others. Calls come from the whole dose curve; as a rule, active = well fitted inhibition curve with a large enough effect; inconclusive = small, poorly fitted or top-dose-only effect, or effect the other way; inactive = flat fitted curve, though single readings scatter. A potency beside an inconclusive call is a rough fit, not a confirmed value.

Assay: qHTS screen for small molecules that inhibit ELG1-dependent DNA repair in human embryonic kidney (HEK293T) cells expressing luciferase-tagged ELG1; note: nearly all actives have a fitted effect of over 55% in size
Settings: HEK293T ELG1-luciferase reporter, luminescence, 16 h, DNA damage induced by 5-fluorouridine; series mostly up to 46.1 µM
In short: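 5-Fluorouridine DNA damage + compound/DMSO, 2,000 cells/well, 16 h, 37 °C/5% CO2. ONE-Glo, 30 min RT, luminescence. Readout = decrease in reporter signal.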
Potency is the fitted concentration of half-maximal effect.

Row | Structure (SMILES) | Potency
1 | O=[N+]([O-])c1ccccc1CNCCO | inconclusive: 3.16 µM [activator, single point]
2 | O=C(COC(=O)c1cccc(Cl)c1Cl)NCCN1C(=O)CSC1=O | inactive
3 | Cc1cc(C)n(CC(O)COc2ccccc2C(=O)Nc2ccccc2)n1 (stereo not drawn) | inconclusive: 16.4 µM [inhibitor, single point]
4 | Cc1cc(NC(=O)C2C3C(=O)N(CC4CCCO4)C(C(=O)NCc4ccccc4)C34C=CC2(C)O4)no1 (stereo not drawn) | inactive
5 | Cc1c(C(=O)N(Cc2ccccc2)C2CCS(=O)(=O)C2)oc2ccccc12 (stereo not drawn) | inconclusive: 23.1 µM [inhibitor, partial curve, poor fit]
6 | Cc1ccc(S(=O)(=O)n2nc(-c3ccco3)nc2N)cc1 | inconclusive: 20.6 µM [activator, single point]
7 | CCOc1ccc(NC(=O)C(c2ccccn2)N(C(=O)CCl)c2ccc(OCC)cc2)cc1 (stereo not drawn) | inconclusive: 14.6 µM [activator, partial curve]
8 | CC(=O)c1cccc(NC(=O)c2c(F)c(F)c(F)c(F)c2F)c1 | inconclusive: 31.6 µM [inhibitor, single point]
9 | O=C(Nc1cccc(-c2cn3cccnc3n2)c1)c1ccc2c(c1)OCO2 | inconclusive: 29.1 µM [inhibitor, single point]
10 | CCOc1ccc(CN(C)C(C)C(=O)NCc2ccccc2)cc1 (stereo not drawn) | inactive
11 | CCOC(=O)c1ccc(-c2c(-c3ccccc3OC)oc3ccccc23)cc1F | inconclusive: 29.1 µM [activator, single point]
12 | CC(C)C[C@H](NC(=O)c1[nH]cnc1C(=O)Nc1ccc(CNC(=O)OC(C)(C)C)cc1)C(=O)OCc1ccccc1 | inconclusive: 29.1 µM [inhibitor, single point]
13 | CCN(CC)CCn1c2c(c(SCC(=O)Nc3ccccc3Cl)nc1=O)CCC2 | inactive
14 | CC1CCCN(C(=O)CNC(=O)c2sc3ccccc3c2Cl)C1 (stereo not drawn) | inconclusive: 10.3 µM [activator, partial curve]
15 | COc1cc(N2N=C(c3ccccc3)CC2c2ccccc2)c(C=O)cc1C=O (stereo not drawn) | inactive
16 | COc1cccc(Cl)c1NC(=O)N1CCN(c2ccnc3cc(Cl)ccc23)CC1 | inconclusive: 23.1 µM [inhibitor, single point]
17 | COC(=O)c1cc(-c2c(-c3cc(OC)c(OC)c(OC)c3)noc2C)cc([N+](=O)[O-])c1 | inconclusive: 29.1 µM [inhibitor, single point]
18 | CS(=O)(=O)c1cccc(C(=O)OCC(=O)c2ccc3c(c2)OCCO3)c1 | inactive
19 | O=[N+]([O-])c1cc2c(cc1C=Nc1ccccc1)OCO2 | inactive
20 | O=[N+]([O-])c1ncn(C23CC4CC(CC(C4)C2)C3)n1 | inconclusive: 29.1 µM [inhibitor, single point]
21 | CCc1ccc(-c2nc(NC(=O)c3ccc(OCC(=O)Nc4ccc(F)cc4)c(OC)c3)sc2C)cc1 | inconclusive: 29.1 µM [activator, single point]
22 | COc1ccc2c(C)cc3nncn3c2c1 | inconclusive: 18.3 µM [activator, single point]

Copied from above: nos. 4–6
Row | Structure (SMILES) | Potency
4 | Cc1cc(NC(=O)C2C3C(=O)N(CC4CCCO4)C(C(=O)NCc4ccccc4)C34C=CC2(C)O4)no1 (stereo not drawn) | inactive
5 | Cc1c(C(=O)N(Cc2ccccc2)C2CCS(=O)(=O)C2)oc2ccccc12 (stereo not drawn) | inconclusive: 23.1 µM [inhibitor, partial curve, poor fit]
6 | Cc1ccc(S(=O)(=O)n2nc(-c3ccco3)nc2N)cc1 | inconclusive: 20.6 µM [activator, single point]

Following part

Row | Structure (SMILES) | Potency
23 | CCOC(=O)CCCCCC(=O)Nc1ccc2c(c1)C(=O)N([C@H](C)CO)C[C@@H](C)[C@H](CN(C)Cc1ccc3c(c1)OCO3)O2 | inconclusive: 14.6 µM [activator, partial curve, poor fit]
24 | CC(C)(C)C1CCc2[nH]c3ccccc3c(=O)c2C1 (stereo not drawn) | inconclusive: 18.4 µM [activator, partial curve]
25 | Cc1c(NC(=O)/C(C#N)=C/c2ccc(-c3cccc(Cl)c3)o2)c(=O)n(-c2ccccc2)n1C | inconclusive: 25.9 µM [inhibitor, partial curve, poor fit]
26 | COc1ccccc1C1=CN(Cc2ccccc2)CCC1=O | inactive
27 | CC(N1CCOC1=O)S(=O)(=O)c1ccccc1 (stereo not drawn) | inconclusive: 32.6 µM [activator, partial curve, poor fit]
28 | Cc1cccc(C)c1NC(=O)COc1ccc2c(C)c(Cc3ccccc3)c(=O)oc2c1 | inconclusive: 16.4 µM [inhibitor, single point]
29 | COc1ccc(-c2nc3ccccc3nc2-c2ccccc2)cc1OC | inconclusive: 17.8 µM [inhibitor, partial curve, poor fit]
30 | COc1ccc(NC(=S)N(CCN(C)C)C(C)c2ccncc2)cc1Cl (stereo not drawn) | inconclusive: 29.1 µM [inhibitor, single point]
31 | Cc1ccc(CNc2nc3ccccc3n3cnnc23)cc1 | inconclusive: 16.4 µM [activator, partial curve, poor fit]
32 | COc1cc2c(cc1OC)C(C)N(C(=O)c1c(-c3ccccc3)noc1C)CC2 (stereo not drawn) | inconclusive: 18.3 µM [inhibitor, single point]
33 | Cn1nnnc1SCC(=O)N1N=C(c2ccc(Cl)cc2)CC1c1ccco1 (stereo not drawn) | inconclusive: 23.1 µM [inhibitor, single point]
34 | CCOC(=O)N1CCC(n2c(SCC(=O)Nc3ccccc3OC)nc3ccccc3c2=O)CC1 | inconclusive: 18.4 µM [inhibitor, single point]
35 | FC(F)(F)c1cccc(NC(=S)NNC(=S)Nc2ccc(Cl)cc2)c1 | inactive
36 | COc1ccc(Cn2c(C3CC3)nc3ccc(NC(=O)c4cccnc4)cc3c2=O)cc1 | inactive
37 | CCSC(=O)NC1CCCCC1 | inactive
38 | CC(=O)Nc1nc(-c2ccc3c(c2)OCO3)cs1 | inconclusive: 20.6 µM [activator, partial curve]
39 | C/C(=N\Nc1ccc(C(F)(F)F)cn1)c1ccc(S(=O)(=O)NCc2ccco2)cc1 | inactive
40 | CN(C)S(=O)(=O)c1ccc(C(=O)NCCOc2ccccc2)cc1 | inconclusive: 14.6 µM [activator, partial curve]
41 | Cc1cc2nc(-c3ccc(=O)[nH]c3)n(Cc3ccccc3)c2cc1C | inconclusive: 18.3 µM [activator, partial curve]
42 | CC1(C)Cc2c(c(N3CCOCC3)nc3sc(-c4ccc(C(=O)O)o4)c(N)c23)CO1 | active: 2.59 µM
43 | COc1cc2c(cc1OC)C(=O)N(C)CC2 | inactive
